Values from PubChem BioAssay AID743458 (Peter MacCallum Cancer Centre, 2014).
Assay: 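Identify genes whose loss lifts vorinostat resistance in colon cancer cells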 (follow-up of hits). Cells: human HCT116-VR colon cancer cells made resistant to vorinostat. Reagents: single siRNA or pool against human genes, 25 nM per single siRNA. Time to read-out: about 72 h after transfection, including 24 h of drug. Treatment: vorinostat, 2.5 µM final, for 24 h. Read-out: 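Cell viability by fluorescence and apoptosis by caspase 3/7 luminescence under vorinostat, background-corrected, averaged across two plate copies and given as fold change versus mock transfection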. Reading the numbers: viability relative to mock: higher = more living cells than mock; caspase activity relative to mock: higher = more apoptosis than mock. Call rule: 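An siRNA counts as active if classed as reduced viability or as caspase activation, otherwise inactive; a hit class needed wells that remained healthy in the absence of drug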.
This is one part, drawn at random, of about 1,800 reagents. Of all reagents, 732 (41%) are marked active. 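Calls are per siRNA reagent; a gene was deemed confirmed only if most of its four siRNAs scored.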 A number with no mark means an inactive call.

| Target gene | PubChem SID | viability relative to mock | caspase activity relative to mock | viability hit class | caspase hit class |
| --- | --- | --- | --- | --- | --- |
| CGRRF1 (GeneID 10668) | SID134237961 | 0.78 | 2.13 | no change | no change |
| CGRRF1 (GeneID 10668) | SID134237962 | 0.8 (active) | 3.2 | no change | caspase activation |
| CGRRF1 (GeneID 10668) | SID134237963 | 1 | 2.33 | no change | no change |
| CGRRF1 (GeneID 10668) | SID134237964 | 0.88 | 0.94 | no change | no change |
| C1QTNF7 (GeneID 114905) | SID134272381 | 0.95 | 1.1 | no change | no change |
| C1QTNF7 (GeneID 114905) | SID134272383 | 0.85 | 0.88 | no change | no change |
| C1QTNF7 (GeneID 114905) | SID134272384 | 0.84 | 0.74 | no change | no change |
| C1QTNF7 (GeneID 114905) | SID135615050 | 0.25 | 1.21 | no change | no change |
| LAG3 (GeneID 3902) | SID134236949 | 1 | 1.58 | no change | no change |
| LAG3 (GeneID 3902) | SID134236950 | 0.75 | 1.52 | no change | no change |
| LAG3 (GeneID 3902) | SID134236951 | 0.44 (active) | 6.06 | reduced viability | caspase activation |
| LAG3 (GeneID 3902) | SID134236952 | 0.72 | 1.62 | no change | no change |
| AOC1 (GeneID 26) | SID134245669 | 0.75 | 1 | no change | no change |
| AOC1 (GeneID 26) | SID134245670 | 0.84 | 0.74 | no change | no change |
| AOC1 (GeneID 26) | SID134245671 | 0.94 | 0.97 | no change | no change |
| AOC1 (GeneID 26) | SID134245672 | 0.82 | 1.64 | no change | no change |
| TECTB (GeneID 6975) | SID134266813 | 0.57 | 1.31 | no change | no change |
| TECTB (GeneID 6975) | SID134266814 | 0.28 (active) | 1.67 | reduced viability | no change |
| TECTB (GeneID 6975) | SID134266815 | 1.02 | 0.84 | no change | no change |
| TECTB (GeneID 6975) | SID134266816 | 0.86 | 2.4 | no change | no change |
| FABP6 (GeneID 2172) | SID134244525 | 0.94 | 0.82 | no change | no change |
| FABP6 (GeneID 2172) | SID134244526 | 0.23 (active) | 2.64 | reduced viability | caspase activation |
| FABP6 (GeneID 2172) | SID134244527 | 0.76 | 0.93 | no change | no change |
| FABP6 (GeneID 2172) | SID134244528 | 0.78 | 0.78 | no change | no change |
